The source of these data is publication PMC9056525.

Assay [1] addresses T1, UBA (ubiquitin associated) region of OTUD3 (human) (UniProt Q5T2D3).
T1 sequence: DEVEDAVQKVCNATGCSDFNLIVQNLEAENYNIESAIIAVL
The experiment in a line: co-IP; exogenous proteins and fragments in transfected cells; HEPES lysis buffer (20 mM HEPES pH 7.2, 50 mM NaCl, 0.5% Triton X-100, 1 mM NaF, 1 mM dithiothreitol), indicated primary antibody and protein A/G agarose at 4 °C, four washes, immunoblot. For orientation: Immunoblotting shows a protein as a band on a membrane.

The target of assay [2] is T2, F box and leucine-rich repeat protein 5 (FBXL5) (UniProt Q9UKA1).
T2 sequence: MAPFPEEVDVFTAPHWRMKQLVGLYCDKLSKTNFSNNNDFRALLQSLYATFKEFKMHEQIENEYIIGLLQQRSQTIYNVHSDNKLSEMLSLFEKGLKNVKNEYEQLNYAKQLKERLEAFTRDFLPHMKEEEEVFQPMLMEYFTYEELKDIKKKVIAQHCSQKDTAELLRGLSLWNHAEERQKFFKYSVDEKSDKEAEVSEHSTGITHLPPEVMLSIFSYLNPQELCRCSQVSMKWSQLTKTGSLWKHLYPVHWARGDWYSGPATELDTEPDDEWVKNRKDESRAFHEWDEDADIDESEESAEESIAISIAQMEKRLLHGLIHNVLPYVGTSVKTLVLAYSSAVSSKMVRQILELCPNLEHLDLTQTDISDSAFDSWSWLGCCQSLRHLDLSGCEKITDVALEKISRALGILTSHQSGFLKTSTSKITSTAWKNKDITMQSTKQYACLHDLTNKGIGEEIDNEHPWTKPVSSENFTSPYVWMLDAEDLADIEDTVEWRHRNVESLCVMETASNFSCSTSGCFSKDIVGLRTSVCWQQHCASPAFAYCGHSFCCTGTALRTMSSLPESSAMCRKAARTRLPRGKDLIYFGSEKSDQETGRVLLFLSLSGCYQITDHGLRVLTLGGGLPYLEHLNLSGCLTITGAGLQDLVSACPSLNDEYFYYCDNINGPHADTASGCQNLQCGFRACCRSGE
Described as above.

These are yes or no findings as the source states them, for the method shown. In cells and extracts the contact can be indirect. Binding can be weak; no strength is given.

For D3 region of IRP2 (domain or fragment), the binding entry in assay [1] and in assay [2] was “binds” throughout.
Consider D2 region of IRP2 (domain or fragment), for which the binding entry in assay [1] was “binds”.
